The text below walks through data of article PMC10114587.

Amino acid sequences for entries named in this document (tags omitted).
UniProt P07355: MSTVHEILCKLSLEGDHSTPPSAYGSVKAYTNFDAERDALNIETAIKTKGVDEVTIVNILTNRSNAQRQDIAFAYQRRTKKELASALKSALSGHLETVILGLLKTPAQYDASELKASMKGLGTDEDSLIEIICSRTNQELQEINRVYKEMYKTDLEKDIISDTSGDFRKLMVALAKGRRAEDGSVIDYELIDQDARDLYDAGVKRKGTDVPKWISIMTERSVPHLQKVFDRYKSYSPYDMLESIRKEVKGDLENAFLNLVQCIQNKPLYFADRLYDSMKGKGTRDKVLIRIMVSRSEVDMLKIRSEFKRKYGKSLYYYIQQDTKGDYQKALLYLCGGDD

No constants are given. Whether binding was seen depends on the method and setting. In cells and extracts the contact can be indirect. Some results given as binding are weak or reduced against the parent protein; the word gives no strength. Tags and fused reporters may be left off the sequences shown.

This assay concerns the target T1, LOXL4 wt (tagged, transiently expressed, for the confirming immunoprecipitation) (UniProt Q96JB6).
T1 sequence: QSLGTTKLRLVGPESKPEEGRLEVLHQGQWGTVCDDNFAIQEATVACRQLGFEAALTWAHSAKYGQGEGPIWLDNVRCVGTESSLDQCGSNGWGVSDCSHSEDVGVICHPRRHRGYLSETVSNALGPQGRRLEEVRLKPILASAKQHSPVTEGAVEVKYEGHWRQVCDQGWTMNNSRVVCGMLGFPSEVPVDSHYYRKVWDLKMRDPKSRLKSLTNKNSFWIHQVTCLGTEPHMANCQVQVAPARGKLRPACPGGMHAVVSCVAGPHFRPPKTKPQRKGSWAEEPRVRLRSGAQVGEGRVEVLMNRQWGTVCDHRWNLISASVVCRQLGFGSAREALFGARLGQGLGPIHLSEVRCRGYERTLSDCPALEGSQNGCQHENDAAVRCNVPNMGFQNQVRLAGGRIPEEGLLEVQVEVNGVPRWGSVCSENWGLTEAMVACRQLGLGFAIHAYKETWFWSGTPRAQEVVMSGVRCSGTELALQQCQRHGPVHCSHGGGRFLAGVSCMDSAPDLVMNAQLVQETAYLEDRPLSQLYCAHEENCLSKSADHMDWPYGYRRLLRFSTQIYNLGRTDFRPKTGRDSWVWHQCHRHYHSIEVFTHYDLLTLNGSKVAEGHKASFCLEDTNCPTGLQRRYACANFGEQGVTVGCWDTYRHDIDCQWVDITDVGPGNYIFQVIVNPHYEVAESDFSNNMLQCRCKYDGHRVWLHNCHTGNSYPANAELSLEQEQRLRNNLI
Kind of assay: co-IP; immunoprecipitation of transiently expressed tagged constructs (Supplementary Figure S2B); bait and cells not given.

“annexin A2 (tagged, transiently expressed, for the confirming immunoprecipitation) (from UniProt P07355 1-339)”: the binding result was “binds”.
